From PMC11965567
No constants are given. Whether binding was seen depends on the method and setting. Binding seen in cells or lysates may run through a third protein. Some entries that bind do so weakly or less than the wild type. One block for each binder: values may come before it.

Biological target: T1, Calpastatin (CAST), endogenous (human (endogenous in MDA-MB-231, HCC-1954 and T47D)) (UniProt P20810)
T1 sequence: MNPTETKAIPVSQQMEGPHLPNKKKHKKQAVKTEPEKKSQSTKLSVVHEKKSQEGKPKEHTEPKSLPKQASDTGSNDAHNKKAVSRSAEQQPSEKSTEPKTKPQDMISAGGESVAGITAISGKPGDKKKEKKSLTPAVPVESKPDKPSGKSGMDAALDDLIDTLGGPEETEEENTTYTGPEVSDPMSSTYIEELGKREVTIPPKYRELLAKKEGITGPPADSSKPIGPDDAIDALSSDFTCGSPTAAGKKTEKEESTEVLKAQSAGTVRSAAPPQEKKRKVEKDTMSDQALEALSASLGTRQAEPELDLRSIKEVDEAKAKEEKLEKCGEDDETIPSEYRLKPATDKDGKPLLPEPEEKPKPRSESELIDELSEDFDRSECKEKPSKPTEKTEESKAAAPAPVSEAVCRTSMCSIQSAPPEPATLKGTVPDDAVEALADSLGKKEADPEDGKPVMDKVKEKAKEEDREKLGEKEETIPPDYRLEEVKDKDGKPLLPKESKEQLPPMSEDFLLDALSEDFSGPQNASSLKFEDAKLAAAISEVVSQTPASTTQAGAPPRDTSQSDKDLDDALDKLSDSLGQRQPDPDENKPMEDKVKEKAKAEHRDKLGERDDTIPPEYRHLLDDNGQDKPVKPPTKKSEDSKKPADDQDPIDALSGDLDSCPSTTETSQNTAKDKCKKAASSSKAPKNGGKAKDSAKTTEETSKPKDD
Assay: co-IP; reciprocal co-IP from MDA-MB-231 and HCC-1954 cell lysates with anti-TXNIP or anti-CAST antibodies (IgG as control), western blotting for TXNIP and CAST

binding: binds
B1: Thioredoxin-interacting protein (TXNIP), endogenous (protein, UniProt Q9H3M7 1-391)
chain: MVMFKKIKSFEVVFNDPEKVYGSGEKVAGRVIVEVCEVTRVKAVRILACGVAKVLWMQGSQQCKQTSEYLRYEDTLLLEDQPTGENEMVIMRPGNKYEYKFGFELPQGPLGTSFKGKYGCVDYWVKAFLDRPSQPTQETKKNFEVVDLVDVNTPDLMAPVSAKKEKKVSCMFIPDGRVSVSARIDRKGFCEGDEISIHADFENTCSRIVVPKAAIVARHTYLANGQTKVLTQKLSSVRGNHIISGTCASWRGKSLRVQKIRPSILGCNILRVEYSLLIYVSVPGSKKVILDLPLVIGSRSGLSSRTSSMASRTSSEMSWVDLNIPDTPEAPPCYMDVIPEDHRLESPTTPLLDDMDGSQDSPIFMYAPEFKFMPPPTYTEVDPCILNNNVQ

binding: binds
B2: Thioredoxin-interacting protein (TXNIP), overexpressed in HCC-1954 cells (protein, UniProt Q9H3M7 1-391)
chain: B1 chain
